In article PMC13423814:
Where two headings read alike, the source gives them in different places. Results are given in words; binding and its absence hold for the method and conditions named. In cells and extracts the contact can be indirect. Some entries that bind do so weakly or less than the wild type. For part of these data: Sequences can lack the tags named with a protein.

Amino acid sequences for entries named in this document (tags omitted).
UniProt P15682: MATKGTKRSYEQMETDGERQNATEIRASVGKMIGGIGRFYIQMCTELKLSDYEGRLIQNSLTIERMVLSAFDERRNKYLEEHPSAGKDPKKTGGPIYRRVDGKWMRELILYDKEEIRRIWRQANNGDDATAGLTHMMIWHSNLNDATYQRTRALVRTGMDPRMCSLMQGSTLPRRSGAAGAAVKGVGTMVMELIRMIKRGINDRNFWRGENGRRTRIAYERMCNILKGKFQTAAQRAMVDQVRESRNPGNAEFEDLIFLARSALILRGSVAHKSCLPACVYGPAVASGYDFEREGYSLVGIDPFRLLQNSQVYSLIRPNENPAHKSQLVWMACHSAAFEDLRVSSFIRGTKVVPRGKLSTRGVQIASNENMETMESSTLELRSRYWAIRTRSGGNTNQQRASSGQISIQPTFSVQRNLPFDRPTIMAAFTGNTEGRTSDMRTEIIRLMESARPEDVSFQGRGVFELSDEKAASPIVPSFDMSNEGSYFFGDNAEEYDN
UniProt Q01650: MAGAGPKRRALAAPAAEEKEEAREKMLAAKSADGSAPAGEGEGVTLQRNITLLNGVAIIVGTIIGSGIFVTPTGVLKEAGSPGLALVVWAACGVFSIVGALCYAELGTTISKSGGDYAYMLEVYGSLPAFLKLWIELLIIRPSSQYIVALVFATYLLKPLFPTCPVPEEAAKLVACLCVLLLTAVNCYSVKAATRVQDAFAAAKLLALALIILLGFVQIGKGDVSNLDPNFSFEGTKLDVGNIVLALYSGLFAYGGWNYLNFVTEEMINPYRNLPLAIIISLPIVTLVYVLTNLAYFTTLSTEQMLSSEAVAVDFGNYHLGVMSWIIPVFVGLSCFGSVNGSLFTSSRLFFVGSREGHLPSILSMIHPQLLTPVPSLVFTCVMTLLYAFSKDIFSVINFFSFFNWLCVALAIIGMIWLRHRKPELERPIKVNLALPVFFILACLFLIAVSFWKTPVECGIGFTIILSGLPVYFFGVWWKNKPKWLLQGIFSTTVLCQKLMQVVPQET
UniProt P03427: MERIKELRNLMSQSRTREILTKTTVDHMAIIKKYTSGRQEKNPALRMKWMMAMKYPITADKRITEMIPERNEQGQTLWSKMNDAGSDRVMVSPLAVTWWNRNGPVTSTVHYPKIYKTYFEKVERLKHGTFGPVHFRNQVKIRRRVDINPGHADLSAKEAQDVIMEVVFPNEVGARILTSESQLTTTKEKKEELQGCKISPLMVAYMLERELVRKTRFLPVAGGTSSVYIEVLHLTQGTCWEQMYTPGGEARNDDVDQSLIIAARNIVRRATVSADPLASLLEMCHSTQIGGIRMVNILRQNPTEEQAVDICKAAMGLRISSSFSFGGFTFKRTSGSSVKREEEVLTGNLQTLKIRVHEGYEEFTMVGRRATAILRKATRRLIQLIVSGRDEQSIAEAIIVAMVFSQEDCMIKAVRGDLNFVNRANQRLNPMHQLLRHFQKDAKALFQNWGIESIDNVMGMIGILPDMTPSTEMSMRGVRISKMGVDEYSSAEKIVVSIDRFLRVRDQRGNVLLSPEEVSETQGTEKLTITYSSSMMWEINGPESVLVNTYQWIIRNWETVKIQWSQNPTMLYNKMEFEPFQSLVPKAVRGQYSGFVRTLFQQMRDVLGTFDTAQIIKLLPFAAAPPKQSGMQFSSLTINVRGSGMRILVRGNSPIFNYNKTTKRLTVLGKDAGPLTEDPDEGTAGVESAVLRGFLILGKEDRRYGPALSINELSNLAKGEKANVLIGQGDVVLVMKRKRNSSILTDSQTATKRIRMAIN
UniProt P05777: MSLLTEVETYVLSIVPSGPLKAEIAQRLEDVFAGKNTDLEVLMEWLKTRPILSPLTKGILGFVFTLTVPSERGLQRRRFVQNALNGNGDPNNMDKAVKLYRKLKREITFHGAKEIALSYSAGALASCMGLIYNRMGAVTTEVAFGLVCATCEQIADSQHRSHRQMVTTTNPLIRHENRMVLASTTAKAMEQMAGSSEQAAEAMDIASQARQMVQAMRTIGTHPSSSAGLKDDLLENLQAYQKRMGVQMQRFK
UniProt Q13148: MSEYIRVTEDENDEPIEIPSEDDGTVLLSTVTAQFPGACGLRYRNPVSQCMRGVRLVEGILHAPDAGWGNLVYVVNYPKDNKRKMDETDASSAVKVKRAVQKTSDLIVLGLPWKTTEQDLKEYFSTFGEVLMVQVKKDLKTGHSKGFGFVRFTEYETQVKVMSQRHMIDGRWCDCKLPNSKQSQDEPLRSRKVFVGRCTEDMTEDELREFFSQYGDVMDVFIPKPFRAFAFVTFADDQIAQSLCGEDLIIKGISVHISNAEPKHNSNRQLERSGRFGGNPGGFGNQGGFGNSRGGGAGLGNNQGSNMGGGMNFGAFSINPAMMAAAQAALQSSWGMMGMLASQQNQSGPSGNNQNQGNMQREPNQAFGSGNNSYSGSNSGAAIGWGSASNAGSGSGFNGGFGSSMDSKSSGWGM
UniProt Q12905: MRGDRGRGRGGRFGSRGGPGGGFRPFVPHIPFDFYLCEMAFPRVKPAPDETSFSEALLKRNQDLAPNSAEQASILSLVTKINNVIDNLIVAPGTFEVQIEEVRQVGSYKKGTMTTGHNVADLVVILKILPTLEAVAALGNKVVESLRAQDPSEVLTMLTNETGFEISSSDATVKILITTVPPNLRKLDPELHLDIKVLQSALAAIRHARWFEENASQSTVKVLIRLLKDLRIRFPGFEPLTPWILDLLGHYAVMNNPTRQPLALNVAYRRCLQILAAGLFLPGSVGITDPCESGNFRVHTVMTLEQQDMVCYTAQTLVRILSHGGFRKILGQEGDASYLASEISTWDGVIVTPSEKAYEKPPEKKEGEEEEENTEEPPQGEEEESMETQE
UniProt P62491: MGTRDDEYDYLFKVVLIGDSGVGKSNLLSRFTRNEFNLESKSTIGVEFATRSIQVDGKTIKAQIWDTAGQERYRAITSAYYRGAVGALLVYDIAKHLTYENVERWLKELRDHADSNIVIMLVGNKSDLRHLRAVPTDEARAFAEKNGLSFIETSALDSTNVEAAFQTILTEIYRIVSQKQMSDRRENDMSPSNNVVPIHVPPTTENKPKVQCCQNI
UniProt Q92688: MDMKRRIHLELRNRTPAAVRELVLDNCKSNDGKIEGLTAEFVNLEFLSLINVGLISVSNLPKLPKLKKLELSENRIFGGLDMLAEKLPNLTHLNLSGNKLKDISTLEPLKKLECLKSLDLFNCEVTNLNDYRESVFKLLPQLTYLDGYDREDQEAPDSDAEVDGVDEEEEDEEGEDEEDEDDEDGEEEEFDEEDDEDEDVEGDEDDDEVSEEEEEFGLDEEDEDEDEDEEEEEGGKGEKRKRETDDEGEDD
UniProt P39687: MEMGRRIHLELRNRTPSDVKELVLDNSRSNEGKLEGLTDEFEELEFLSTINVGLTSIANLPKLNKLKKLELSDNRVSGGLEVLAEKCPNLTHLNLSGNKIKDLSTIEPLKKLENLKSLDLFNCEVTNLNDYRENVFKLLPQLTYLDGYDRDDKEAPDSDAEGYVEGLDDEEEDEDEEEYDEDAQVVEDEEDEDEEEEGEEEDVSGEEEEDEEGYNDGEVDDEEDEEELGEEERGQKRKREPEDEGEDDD
UniProt P35637: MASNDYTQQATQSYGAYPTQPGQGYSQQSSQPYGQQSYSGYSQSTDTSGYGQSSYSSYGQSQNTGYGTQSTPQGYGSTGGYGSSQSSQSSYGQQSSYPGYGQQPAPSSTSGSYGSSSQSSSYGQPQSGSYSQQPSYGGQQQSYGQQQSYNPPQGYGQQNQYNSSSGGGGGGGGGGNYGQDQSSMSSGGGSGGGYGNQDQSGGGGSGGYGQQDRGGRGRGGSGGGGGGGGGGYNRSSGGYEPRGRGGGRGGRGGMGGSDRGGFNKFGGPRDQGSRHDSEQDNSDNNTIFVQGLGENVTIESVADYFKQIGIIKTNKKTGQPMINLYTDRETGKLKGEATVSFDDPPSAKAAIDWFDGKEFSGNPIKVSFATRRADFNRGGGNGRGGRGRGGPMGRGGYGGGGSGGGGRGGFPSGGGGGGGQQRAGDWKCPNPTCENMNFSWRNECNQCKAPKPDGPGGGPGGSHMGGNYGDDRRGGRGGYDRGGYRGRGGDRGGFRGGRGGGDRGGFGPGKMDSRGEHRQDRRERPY

What was measured:
[1] = target: Influenza A virus nucleoprotein (NP), strain A/WSN/33 (H1N1) (influenza A virus A/WSN/33 (H1N1)) (UniProt P15682)
[2] = target: T1, NONO (human (endogenous in A549)) (UniProt Q15233); assay: co-IP
T1 sequence: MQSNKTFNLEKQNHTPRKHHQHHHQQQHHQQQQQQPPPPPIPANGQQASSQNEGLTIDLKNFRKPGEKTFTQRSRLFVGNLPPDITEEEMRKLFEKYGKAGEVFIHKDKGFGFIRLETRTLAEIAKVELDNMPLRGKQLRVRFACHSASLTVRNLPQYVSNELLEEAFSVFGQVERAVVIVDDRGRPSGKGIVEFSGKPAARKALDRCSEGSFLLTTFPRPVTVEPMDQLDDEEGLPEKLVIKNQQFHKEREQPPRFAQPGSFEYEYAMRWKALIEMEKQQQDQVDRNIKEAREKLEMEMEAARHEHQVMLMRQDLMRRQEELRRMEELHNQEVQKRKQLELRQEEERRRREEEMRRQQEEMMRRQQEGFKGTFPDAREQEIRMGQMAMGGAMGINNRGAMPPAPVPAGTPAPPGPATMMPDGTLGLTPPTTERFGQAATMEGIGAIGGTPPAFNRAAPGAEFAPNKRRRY

[3] = target: T1, NONO (human (endogenous in A549))
[4] = target: SLC7A5 (human (endogenous in A549)) (UniProt Q01650); assay: proximity ligation
[5] = target: Influenza A virus nucleoprotein (NP), strain A/WSN/33 (H1N1) (influenza A virus A/WSN/33 (H1N1)) (UniProt P15682); remark: listed apart in the source
[6] = target: Influenza A virus nucleoprotein (NP), strain A/WSN/33 (H1N1) (influenza A virus A/WSN/33 (H1N1)) (UniProt P15682); assay: proximity ligation
[7] = target: Influenza A virus polymerase subunit PB2, strain A/WSN/33 (H1N1) (influenza A virus A/WSN/33 (H1N1)) (UniProt P03427)
[8] = target: Influenza A virus matrix protein 1 (M1), strain A/WSN/33 (H1N1) (influenza A virus A/WSN/33 (H1N1)) (UniProt P05777)
[9] = target: T2, Twin-Strep-tagged NONO expressed in HEK293T cells (UniProt Q15233); assay: co-IP
T2 sequence: T1 sequence

## TDP-43 (TARDBP) (from UniProt Q13148 1-414)
[1]
  binding: binds

## Influenza A virus nucleoprotein (NP), strain A/WSN/33 (H1N1) (from UniProt P15682 1-498)
[2]
  binding: binds
[3]
  binding: binds

## SLC3A2 (from UniProt P08195 1-529)
[4]
  binding: binds

## ILF2 (from UniProt Q12905 1-390)
[5]
  binding: binds
[6]
  binding: binds

## RAB11A (from UniProt P62491 1-216)
[7]
  binding: binds

## ANP32B (from UniProt Q92688 1-251)
[8]
  binding: binds

## ANP32A (from UniProt P39687 1-249)
[8]
  binding: binds

## Influenza A virus polymerase subunit PB2, strain A/WSN/33 (H1N1) (from UniProt P03427 1-759)
[6]
  binding: binds

## FUS (from UniProt P35637 1-526)
[6]
  binding: binds

## WSN NP expressed in HEK293T cells (from UniProt P15682 1-498)
[9]
  binding: binds
